Values quoted from earlier work as cited in patent US20080248506A1, “Method of Monitoring Anti-Tumor Activity of an Hdac Inhibitor” (Pharmacyclics, Inc., priority 2004, published 2008).
At least one compound was matched to its structure with a doubt left.

Legend:
[1] = test system: γ-H2AX; details: compound by itself, no irradiation
[2] = with radiation

In the case of `C/C=C1\NC(=O)[C@H]2CSSCC/C=C/[C@H](CC(=O)N[C@H](C(C)C)C(=O)N2)OC(=O)[C@H](C(C)C)NC1=O` [FK-228], the γ-H2AX accumulation [1] is listed as “has not been shown to induce accumulation of γ-H2AX foci” and the “radiation induced cell death” value [2] is listed as “augment radiation induced cell death”.
